No constants are given. Whether binding was seen depends on the method and setting.
Target: NanB (Streptococcus pneumoniae D39) (UniProt Q54727)
Test: SEC; quality control of the purified recombinant neuraminidases; purity and monomeric content determined by SDS-PAGE, size exclusion chromatography and circular dichroism; both purified

B1: NanB (enzyme, UniProt Q54727 30-697)
chain: NELNYGQLSISPIFQGGSYQLNNKSIDISSLLLDKLSGESQTVVMKFKADKPNSLQALFGLSNSKAGFKNNYFSIFMRDSGEIGVEIRDAQKGINYLFSRPASLWGKHKGQAVENTLVFVSDSKDKTYTMYVNGIEVFSETVDTFLPISNINGIDKATLGAVNREGKEHYLAKGSIDEISLFNKAISDQEVSTIPLSNPFQLIFQSGDSTQANYFRIPTLYTLSSGRVLSSIDARYGGTHDSKSKINIATSYSDDNGKTWSEPIFAMKFNDYEEQLVYWPRDNKLKNSQISGSASFIDSSIVEDKKSGKTILLADVMPAGIGNNNANKADSGFKEINGHYYLKLKKNGDNDFRYTVRENGVVYNETTNKPTNYTINDKYEVLEGGKSLTVEQYSVDFDSGSLRERHNGKQVPMNVFYKDSLFKVTPTNYIAMTTSQNRGESWEQFKLLPPFLGEKHNGTYLCPGQGLALKSSNRLIFATYTSGELTYLISDDSGQTWKKSSASIPFKNATAEAQMVELRDGVIRTFFRTTTGKIAYMTSRDSGETWSKVSYIDGIQQTSYGTQVSAIKYSQLIDGKEAVILSTPNSRSGRKGGQLVVGLVNKEDDSIDWKYHYDIDLPSYGYAYSAITELPNHHIGVLFEKYDSWSRNELHLSNVVQYIDLEINDLTK
  binding: no binding

From paper PMC6177239
